Laboratory results taken from patent US20230123654A1 (priority 2020, published 2023).

Key:
[1] = test system: Nav1.5 transfected cells (CHO); type: cell-based, Chinese hamster
[2] = test system: Nav1.5 transfected cells (CHO)

CCN(CC)CC(=O)Nc1c(C)cccc1C [Lidocaine, lidocaine]
ROS levels at high glucose [1]: only partial ROS reduction | effect on reduction in cell viability at high glucose [2]: only partially reduced the glucose-elicited cytotoxicity
